# Source: article PMC3506659, “Snm1B Interacts with PSF2” (PLoS ONE, 2012)
# Results are given in words; binding and its absence hold for the method and conditions named. In cells and extracts the contact can be indirect. Some binding calls cover weakened binding; strength is not graded here. Tags and fused reporters may be left off the sequences shown.
# B1: N-terminal Myc epitope-tagged human PSF2 (Myc-PSF2) (natural protein, UniProt Q9Y248 1-185, looked up)
# chain: MDAAEVEFLAEKELVTIIPNFSLDKIYLIGGDLGPFNPGLPVEVPLWLAINLKQRQKCRLLPPEWMDVEKLEKMRDHERKEETFTPMPSPYYMELTKLLLNHASDNIPKADEIRTLVKDMWDTRIAKLRVSADSFVRQQEAHAKLDNLTLMEINTSGTFLTQALNHMYKLRTNLQPLESTQSQDF
# notes: PSF2, subunit of the GINS complex, human, full length; amplified from clone MGC-673 (ATCC); source: 293T, transiently transfected (pCMV-MYC), in lysate; not shown: Myc, N-terminal, kept
# B2: HA epitope-tagged Mus81 (HA-Mus81) (natural protein, UniProt Q96NY9 1-551, looked up)
# chain: MAAPVRLGRKRPLPACPNPLFVRWLTEWRDEATRSRRRTRFVFQKALRSLRRYPLPLRSGKEAKILQHFGDGLCRMLDERLQRHRTSGGDHAPDSPSGENSPAPQGRLAEVQDSSMPVPAQPKAGGSGSYWPARHSGARVILLVLYREHLNPNGHHFLTKEELLQRCAQKSPRVAPGSARPWPALRSLLHRNLVLRTHQPARYSLTPEGLELAQKLAESEGLSLLNVGIGPKEPPGEETAVPGAASAELASEAGVQQQPLELRPGEYRVLLCVDIGETRGGGHRPELLRELQRLHVTHTVRKLHVGDFVWVAQETNPRDPANPGELVLDHIVERKRLDDLCSSIIDGRFREQKFRLKRCGLERRVYLVEEHGSVHNLSLPESTLLQAVTNTQVIDGFFVKRTADIKESAAYLALLTRGLQRLYQGHTLRSRPWGTPGNPESGAMTSPNPLCSLLTFSDFNAGAIKNKAQSVREVFARQLMQVRGVSGEKAAALVDRYSTPASLLAAYDACATPKEQETLLSTIKCGRLQRNLGPALSRTLSQLYCSYGPLT
# notes: Mus81, subunit of the Mus81/Eme1 endonuclease; amplified from clone MGC:14953 (Imagenes); Detected with an anti-Mus81 antibody, which may also see the endogenous Mus81 of 293T cells; source: 293T, transiently transfected (pcDNA3), in lysate; not shown: HA, N-terminal, kept
# B3: N-terminal Flag epitope-tagged human Snm1B (Flag-Snm1B) (protein, UniProt Q9H816 1-532)
# chain: MNGVLIPHTPIAVDFWSLRRAGTARLFFLSHMHSDHTVGLSSTWARPLYCSPITAHLLHRHLQVSKQWIQALEVGESHVLPLDEIGQETMTVTLLDANHCPGSVMFLFEGYFGTILYTGDFRYTPSMLKEPALTLGKQIHTLYLDNTNCNPALVLPSRQEAAHQIVQLIRKHPQHNIKIGLYSLGKESLLEQLALEFQTWVVLSPRRLELVQLLGLADVFTVEEKAGRIHAVDHMEICHSNMLRWNQTHPTIAILPTSRKIHSSHPDIHVIPYSDHSSYSELRAFVAALKPCQVVPIVSRRPCGGFQDSLSPRISVPLIPDSVQQYMSSSSRKPSLLWLLERRLKRPRTQGVVFESPEESADQSQADRDSKKAKKEKLSPWPADLEKQPSHHPLRIKKQLFPDLYSKEWNKAVPFCESQKRVTMLTAPLGFSVHLRSTDEEFISQKTREEIGLGSPLVPMGDDDGGPEATGNQSAWMGHGSPLSHSSKGTPLLATEFRGLALKYLLTPVNFFQAGYSSRRFDQQVEKYHKPC
# Columns and labels:
# [1] = target: T1, N-terminal Flag epitope-tagged human Snm1B (Flag-Snm1B) (human) (UniProt Q9H816); test: co-IP; competition: 293T co-transfected with Flag-Snm1B (WT or N2), Myc-PSF2 and/or Myc-TRF2 (WT or F120A); RIPA lysate, anti-Flag immunoprecipitation, immunoblot anti-Myc; Myc-PSF2:Flag-Snm1B ratio by ImageJ
# T1 sequence: B3 chain
# [2] = target: T1, N-terminal Flag epitope-tagged human Snm1B (Flag-Snm1B) (human); test: co-IP; 293T transiently co-transfected, RIPA lysate, Flag-Snm1B immunoprecipitated with anti-Flag M2 affinity gel at 4°C overnight, immunoblot for Myc-PSF2 or Mus81; with or without co-expressed Myc-PSF2 or HA-Mus81
# [3] = target: T2, Flag-Snm1B^1–494 (human) (UniProt Q9H816); test: as above
# T2 sequence: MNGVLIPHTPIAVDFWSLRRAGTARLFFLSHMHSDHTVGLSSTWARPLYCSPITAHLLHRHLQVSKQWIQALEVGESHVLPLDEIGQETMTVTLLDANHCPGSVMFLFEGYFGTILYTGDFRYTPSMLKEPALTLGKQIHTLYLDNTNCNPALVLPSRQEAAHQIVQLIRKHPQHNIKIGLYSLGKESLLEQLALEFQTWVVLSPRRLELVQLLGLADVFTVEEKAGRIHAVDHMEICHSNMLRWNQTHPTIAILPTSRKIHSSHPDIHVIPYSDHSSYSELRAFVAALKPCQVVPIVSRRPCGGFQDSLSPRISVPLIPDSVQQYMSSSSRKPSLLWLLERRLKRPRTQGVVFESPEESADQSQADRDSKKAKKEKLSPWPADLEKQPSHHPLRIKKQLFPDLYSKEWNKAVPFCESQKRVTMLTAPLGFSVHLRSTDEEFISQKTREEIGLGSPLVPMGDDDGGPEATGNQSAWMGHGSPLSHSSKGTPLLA
# [4] = target: T3, GFP-Flag-Snm1B^79–532 (human) (UniProt Q9H816); test: co-IP; 293T transiently co-transfected, RIPA lysate, GFP-Flag-Snm1B fragments immunoprecipitated with anti-GFP antibody and GammaBind G Sepharose, immunoblot anti-Myc
# T3 sequence: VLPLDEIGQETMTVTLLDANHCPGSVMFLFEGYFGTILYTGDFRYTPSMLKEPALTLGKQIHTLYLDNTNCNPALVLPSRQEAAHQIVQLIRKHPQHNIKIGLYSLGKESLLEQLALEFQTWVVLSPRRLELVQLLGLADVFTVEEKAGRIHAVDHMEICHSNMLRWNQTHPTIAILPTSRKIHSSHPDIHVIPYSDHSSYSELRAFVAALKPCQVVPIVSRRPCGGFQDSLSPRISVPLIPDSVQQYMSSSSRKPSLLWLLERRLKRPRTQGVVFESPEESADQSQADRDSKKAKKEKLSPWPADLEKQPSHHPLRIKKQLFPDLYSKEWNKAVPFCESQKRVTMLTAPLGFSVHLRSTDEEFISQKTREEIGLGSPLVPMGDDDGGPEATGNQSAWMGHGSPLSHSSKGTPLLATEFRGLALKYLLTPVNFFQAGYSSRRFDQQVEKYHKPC
# [5] = target: T4, GFP-Flag-Snm1B^413–532 (human) (UniProt Q9H816); test: as above
# T4 sequence: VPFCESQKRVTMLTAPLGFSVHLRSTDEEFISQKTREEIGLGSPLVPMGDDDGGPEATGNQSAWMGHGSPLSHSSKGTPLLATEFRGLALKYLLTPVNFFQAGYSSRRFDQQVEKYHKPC
# [6] = target: T5, N-terminal Myc epitope-tagged human PSF2 (Myc-PSF2) (human) (UniProt Q9Y248); test: co-IP; 293T transiently co-transfected with Myc-PSF2 and HA-Mus81, with or without Flag-Snm1B; RIPA lysate, Myc-PSF2 immunoprecipitated with anti-Myc antibody and GammaBind G Sepharose, immunoblot anti-Flag or anti-Mus81
# T5 sequence: B1 chain
# [7] = target: T6, Flag-Snm1B^Δ222–363 (human, UniProt Q9H816 1-221; Q9H816 364-532); test: co-IP; 293T transiently co-transfected, RIPA lysate, Flag-Snm1B immunoprecipitated with anti-Flag M2 affinity gel at 4°C overnight, immunoblot for Myc-PSF2 or Mus81; with or without co-expressed Myc-PSF2 or HA-Mus81
# T6 construct: RGR is my translation read in frame from its first base; source: 293T, transiently transfected (pLPC), in lysate; not shown: Flag, N-terminal, kept
# T6 chain: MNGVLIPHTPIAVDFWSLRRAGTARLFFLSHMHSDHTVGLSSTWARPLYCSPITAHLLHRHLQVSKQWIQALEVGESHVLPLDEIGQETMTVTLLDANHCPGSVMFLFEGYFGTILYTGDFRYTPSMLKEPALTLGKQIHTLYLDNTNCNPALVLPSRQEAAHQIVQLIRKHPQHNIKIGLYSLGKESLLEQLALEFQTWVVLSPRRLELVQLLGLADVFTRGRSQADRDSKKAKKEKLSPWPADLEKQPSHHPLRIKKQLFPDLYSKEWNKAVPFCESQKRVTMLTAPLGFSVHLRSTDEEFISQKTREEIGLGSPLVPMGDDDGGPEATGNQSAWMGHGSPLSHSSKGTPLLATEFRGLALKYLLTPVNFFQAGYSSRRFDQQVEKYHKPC
# [8] = target: T5, N-terminal Myc epitope-tagged human PSF2 (Myc-PSF2) (human); test: condition: only without ectopic HA-Mus81 (anti-Myc immunoprecipitation); co-IP; 293T transiently co-transfected with Flag-Snm1B and Myc-PSF2 without ectopic HA-Mus81; RIPA lysate, Myc-PSF2 immunoprecipitated with anti-Myc antibody, immunoblot anti-Flag
Binder,binding [1],binding [2],binding [3],binding [4],binding [5],binding [6],binding [7],binding [8]
B1,binds,binds,binds,binds,binds weakly,,,
B2,,binds,binds,,,binds,binds,
B3,,,,,,binds,,no binding
